Measurements from patent US11191850B2, “Molecular probes for detection and imaging of pancreatic cancer” (Portland State University, priority 2016, dated 2021).
For some of these results: At least one compound was matched to its structure with a doubt left. Some results were stated once for a whole list of compounds, not compound by compound.

What was measured:
[1] = UV-Vis absorption and fluorescence spectroscopy; format: physicochemical
Source text: UV-Vis absorption and fluorescence spectroscopy. UV-Vis spectra were collected with a Cary 50 UV-Vis spectrophotometer at room temperature, using a 1-cm quartz cuvette. Fluorescence spectra were collected on a Cary Eclipse fluorescence spectrophotometer (Agilent Technologies). All absorbance spectra were reference corrected. Fluorescence spectra were corrected for the wavelength dependent response of the R928 photomultiplier tube using a manufacturer generated correction file. Quantum yields are reported as the average of multiple measurements using multiple references. Excitation emission matrices (EEMs) were collected over various spectral regions, using 5-nm step sizes for emission and 10-nm step sizes for excitation. The band pass for excitation and emission was 5 to 10 nm.
Probes 1-13 were screened for pH and solvent sensitivity. Solvent sensitivity or dependence is at least partially attributable to differences in the equilibria between tautomeric forms of the compounds in the various solvents evaluated. The fluorophore concentrations ranged from 10-15 μM. Aqueous solutions contained 10% DMSO and 12.5 mM HCl, 12.5 mM NaOH, or pH 7.4 phosphate buffer.

Capan-1 cells = experiment: In vitro time-dependent fluorophore uptake; format: cell-based, human; details: Capan-1, 10 μM
Procedure: Cell culture. The human PDAC cell line Capan-1 was obtained from Dr. Rosalie Sears' laboratory and maintained in RPMI medium (Gibco) in a humid atmosphere at 37° C. with 5% CO2. All media were supplemented with 10% (v/v) fetal bovine serum (FBS), and 1% (v/v) penicillin/streptomycin. The cell viability was determined by Cell Titer-Blue® assay (Promega Corporation). Monolayers of 10^4 Capan-1 cells were seeded in triplicate in 96 well plates and incubated with decreasing concentration from 100 μM of each compound in growth media containing 10% FBS. After 24 h incubation time, 20 μL of CellTiter-Blue® reagent was added into each well, and culture cells were incubated for additional 2 h. Fluorescence intensity in each well was recorded at 560/590 nm in a SpectraMax® M5 Microplate Reader (Molecular Devices, LLC). The half maximal inhibitory concentration (IC50) of these three compounds were determined from interpolating values in the graph (% cell viability vs. fluorophore concentration). For comparison of cellular uptake rate in Capan-1 cells, absorbance of media was measured as background, and absorbance of supernatant was obtained to determine the cellular uptake by using absorbance of 10 μM fluorophore in cell free media as standard reference.
In vitro time-dependent fluorophore uptake was also investigated in Capan-1 cells. […]

SMILES | pH and solvent sensitivity of UV and fluorescence spectra ([1]; 10-15 μM, aqueous 10% DMSO with HCl, NaOH or pH 7.4 buffer, various solvents) | Extinction coefficient ([1]; pH 7.4 phosphate buffer, 10% DMSO, seminaphthorhodamines) [M⁻¹ cm⁻¹] | time after which compound began clearing from the cells (Capan-1 cells) [h]
COC(=O)c1ccccc1-c1c2ccc(=[N+](C)C)cc-2oc2c1ccc1cccc(N)c12 [Compound 10, N-(1-amino-7-(2-(methoxycarbonyl)phenyl)-10H-benzo[c]xanthen-10-ylidene)-N-methylmethanaminium] | not pH dependent, but were modestly solvent sensitive | 17066 | –
COC(=O)c1ccccc1C1=c2cc3c4c(c2Oc2c1ccc1cccc(OC)c21)CCC[N+]=4CCC3 [Compound 12, 15-methoxy-9-(2-(methoxycarbonyl)phenyl)-1,2,3,5,6,7-hexahydrobenzo[7,8]chromeno[2,3-f]pyrido[3,2,1-ij]quinolin-4-ium chloride] | – | – | > 2
COC(=O)c1ccccc1C1=c2cc3c4c(c2Oc2c1ccc1cccc(N)c21)CCC[N+]=4CCC3 [Compound 13, 15-amino-9-(2-(methoxycarbonyl)phenyl)-1,2,3,5,6,7-hexahydrobenzo[7,8]chromeno[2,3-f]pyrido[3,2,1-ij]quinolin-4-ium chloride] | – | – | > 2
